{
  "source": "PubChem BioAssay AID2384",
  "about": "(Southern Research Specialized Biocontainment Screening …, 2010)",
  "tested_on": "S. typhi GFP reporter counter-screen, fluorescence, 4 h",
  "assay": "inhibitors in S. typhi counter-screen strain, dose response, counter-screen for PhoP regulon inhibitor project, fluorescence, 4 h (AID 2384)",
  "data": [
    {"smiles": "CNCCCC12CCC(c3ccccc31)c1ccccc12", "values": [
      {"measurement": "IC50", "result": 53.5, "unit": "µM"}
    ]}
  ]
}
